From PubChem BioAssay AID256 (DTP/NCI, 2004) come the findings set out here.

The experiment has as its system CD2F1 mice, L1210 leukemia ip, survival T/C. The experiment in a line: NCI In Vivo Anticancer Drug Screen. Data for tumor model L1210 Leukemia (intraperitoneal) in CD2F1 (CDF1) mice. The conditions noted are these: higher T/C = longer survival. In short, it runs like this:
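Compound-dosed mice with transplantable tumor versus matched vehicle controls; endpoint ratio T/C reported.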

[1] abbreviates: T/C endpoint: mean survival time, dose: 400.0 mg/kg/injection, schedule: Q01DX001 (ip), vehicle: saline with Tween-80.
Setting [2] is: T/C endpoint: mean survival time, dose: 200.0 mg/kg/injection, schedule: Q01DX009 (ip), vehicle: saline with Tween-80.

The list shows only some results of the screen, not a fair sample: it is rich in T/C values a quarter to a half above the control, in often repeated tests (any T/C) and in doses without a T/C. Further doses and runs are listed elsewhere. T/C is the treated group as % of the vehicle group. Some doses have a count of surviving animals in place of a T/C: the source files T/C as zero there, which appears to mark a toxic dose or a test without result, not a measured value. Some doses without a T/C left all or most animals alive at the check, yet need not have been tolerated: survival well below the control is almost never listed, so the zero probably covers shortened survival too. Survivors were counted at the toxicity check, usually on the fifth day, unless a day is given; later deaths do not show. Schedules are NCI's codes, taken here to give the interval after Q, in days (D) or hours (H), and the number of doses after X. Marks such as (2×) say how often a value occurs here. Some doses were run more than once; the results are listed from low to high. For survival time, the PubChem record calls one and a half times the control and up active, and a quarter to a half above the control has no call in these data; cut-offs in other NCI protocols can differ.

Consider `CN(C)/N=N\c1ncn(C2OC(CO)C(O)C2O)c1C(N)=O` (stereo not drawn), for which the T/C (T/C endpoint: mean survival time, dose: 200.0 mg/kg/injection, schedule: Q01DX005 (ip), vehicle: saline) was 129 % of control.

Regarding `O=C1C(Cl)=C(NCc2ccccc2Cl)C(=O)c2ccccc21`, the survivor count (T/C endpoint: mean survival time, dose: 50.0 mg/kg/injection, schedule: Q01DX001 (ip), vehicle: saline with Tween-80) is on record as 0 of 3.

With `CCOC1(OCC)C2C=CC1C(C#N)(C#N)C2(C#N)C#N`, the survivor count (T/C endpoint: mean survival time, dose: 300.0 mg/kg/injection, schedule: Q01DX001 (ip), vehicle: saline) is reported as 0 of 6.

With `Nc1ncnc2c1ncn2C1OC(CO)C(O)C1O` (stereo not drawn), the survivor count is, setting by setting: (T/C endpoint: mean survival time, dose: 50.0 mg/kg/injection, schedule: Q01DX009 (ip), vehicle: Klucel (hydroxypropylcellulose) (HPC)) 5 of 10; (T/C endpoint: mean survival time, dose: 100.0 mg/kg/injection, schedule: Q01DX009 (ip), vehicle: Klucel (hydroxypropylcellulose) (HPC)) 0 of 10; (T/C endpoint: mean survival time, dose: 200.0 mg/kg/injection, schedule: Q01DX009 (ip), vehicle: Klucel (hydroxypropylcellulose) (HPC)) 0 of 10; (T/C endpoint: mean survival time, dose: 400.0 mg/kg/injection, schedule: Q01DX009 (ip), vehicle: Klucel (hydroxypropylcellulose) (HPC)) 0 of 10; (T/C endpoint: median survival time, dose: 50.0 mg/kg/injection, schedule: Q01DX009 (ip), vehicle: saline) 7 of 8; (T/C endpoint: median survival time, dose: 100.0 mg/kg/injection, schedule: Q01DX009 (ip), vehicle: saline) 2 of 5 and 5 of 8. The T/C is, setting by setting: (T/C endpoint: mean survival time, dose: 160.0 mg/kg/injection, schedule: Q03HX024 (ip), vehicle: saline with Tween-80) 128 and 140 % of control; (T/C endpoint: mean survival time, dose: 240.0 mg/kg/injection, schedule: Q03HX024 (ip), vehicle: saline with Tween-80) 138 and 144 % of control; (T/C endpoint: mean survival time, dose: 300.0 mg/kg/injection, schedule: Q03HX024 (ip), vehicle: saline with Tween-80) 135 % of control; (T/C endpoint: mean survival time, dose: 320.0 mg/kg/injection, schedule: Q03HX024 (ip), vehicle: saline with Tween-80) 149 % of control; (T/C endpoint: mean survival time, dose: 600.0 mg/kg/injection, schedule: Q01DX009 (ip), vehicle: saline) 127 % of control.

On to `CC1CC(C)(C)NC(C)(C(C)CC(C)(C)C)O1` (stereo not drawn), for which, under setting [1], the survivor count is recorded as 0 of 6.

With `Cc1ccc(CCF)cc1`, the survivor count under setting [1] is 3 of 6.

On to `O=S1(=O)CC2(C1)CS(=O)(=O)C2`, for which the survivor count under setting [1] is on record as 1 of 3.

In the case of `Cc1cn(C2CC(O)C(CO)O2)c(=O)nc1NC1CCCCCCCCCCC1` (stereo not drawn), under “T/C endpoint: median survival time, dose: 200.0 mg/kg/injection, schedule: Q01DX005 (ip), vehicle: distilled water + Tween-80”, the survivor count was 2 of 6.

In the case of `CC(=O)Nc1nc2ncc(/C=C/c3ccccc3)nc2c(=O)[nH]1`, the survivor count (T/C endpoint: mean survival time, dose: 300.0 mg/kg/injection, schedule: Q01DX001 (ip), vehicle: other) was 2 of 6.

For the compound `Nc1ncnc2c1ncn2C1OC(CO)C2NP(=O)(N(CCCl)CCCl)OC21` (stereo not drawn), the survivor count (T/C endpoint: mean survival time, dose: 125.0 mg/kg/injection, schedule: Q01DX001 (ip), vehicle: distilled water + Tween-80) was 2 of 6 and 3 of 6; the survivor count (T/C endpoint: mean survival time, dose: 250.0 mg/kg/injection, schedule: Q01DX001 (ip), vehicle: distilled water + Tween-80) was 0 of 6 (2×); the survivor count (T/C endpoint: mean survival time, dose: 500.0 mg/kg/injection, schedule: Q01DX001 (ip), vehicle: distilled water + Tween-80) is 0 of 6 (2×).

In the case of `Cc1cccc(N=Cc2ccc3c(c2)OCO3)c1`, the survivor count (T/C endpoint: mean survival time, dose: 400.0 mg/kg/injection, schedule: Q04DX003 (ip), vehicle: Klucel (hydroxypropylcellulose) (HPC)) is listed as 6 of 6.

As for `COc1ccc2c(c1)CCn1c(C)c(COC(=O)NC(C)C)c(COC(=O)NC(C)C)c1-2`, the T/C was 127 and 130 % of control (T/C endpoint: median survival time, dose: 6.25 mg/kg/injection, schedule: Q01DX009 (ip), vehicle: distilled water + Tween-80); 126, 136, 138 % of control (T/C endpoint: median survival time, dose: 12.5 mg/kg/injection, schedule: Q01DX009 (ip), vehicle: distilled water + Tween-80); 125 % of control (T/C endpoint: median survival time, dose: 25.0 mg/kg/injection, schedule: Q01DX009 (ip), vehicle: distilled water + Tween-80). For the setting “T/C endpoint: median survival time, dose: 50.0 mg/kg/injection, schedule: Q01DX009 (ip), vehicle: distilled water + Tween-80”, the survivor count is 1 of 6 and 3 of 6.

Regarding `COc1cc(C(=O)C=O)cc(OC)c1OC`, the survivor count was 3 of 6 (T/C endpoint: mean survival time, dose: 100.0 mg/kg/injection, schedule: Q01DX009 (ip), vehicle: saline with Tween-80); 2 of 6 under setting [2]; 3 of 6 (T/C endpoint: mean survival time, dose: 400.0 mg/kg/injection, schedule: Q04DX003 (ip), vehicle: saline with Tween-80).

For the compound `COc1ccc2nc3cc(Cl)ccc3c(Nc3ccc(NS(C)(=O)=O)cc3)c2n1`, the survivor count (T/C endpoint: mean survival time, dose: 200.0 mg/kg/injection, schedule: Q01DX009 (ip), vehicle: other) is 6 of 6.

For the compound `CO[C@@]12[C@@H]3N[C@@H]3CN1C1=C(C(=O)C(NCC3CCCO3)=C(C)C1=O)[C@@H]2COC(N)=O` (stereo partly drawn), the T/C reads like this: (T/C endpoint: mean survival time, dose: 6.0 mg/kg/injection, schedule: Q01DX001 (ip), vehicle: distilled water + Tween-80) 125 % of control; (T/C endpoint: mean survival time, dose: 12.0 mg/kg/injection, schedule: Q01DX001 (ip), vehicle: distilled water + Tween-80) 129 and 133 % of control; (T/C endpoint: mean survival time, dose: 24.0 mg/kg/injection, schedule: Q01DX001 (ip), vehicle: distilled water + Tween-80) 139 and 145 % of control; (T/C endpoint: mean survival time, dose: 36.0 mg/kg/injection, schedule: Q01DX001 (ip), vehicle: distilled water + Tween-80) 127 % of control.

`COc1ccc(C(Cn2ccnc2)Sc2ccc(Cl)c(Cl)c2)cc1` (stereo not drawn): the survivor count under setting [2] is 0 of 6.

For `CCNC1(c2ccccc2)CCCCC1`, the survivor count runs as follows: (T/C endpoint: mean survival time, dose: 50.0 mg/kg/injection, schedule: Q04DX003 (ip), vehicle: saline) 1 of 3; (T/C endpoint: mean survival time, dose: 100.0 mg/kg/injection, schedule: Q04DX003 (ip), vehicle: saline) 0 of 3; (T/C endpoint: mean survival time, dose: 200.0 mg/kg/injection, schedule: Q04DX003 (ip), vehicle: saline) 0 of 3; (T/C endpoint: mean survival time, dose: 400.0 mg/kg/injection, schedule: Q04DX003 (ip), vehicle: saline) 0 of 3.

For the compound `OCCc1ccncc1`, for the setting “T/C endpoint: mean survival time, dose: 400.0 mg/kg/injection, schedule: Q01DX001 (ip), vehicle: saline”, the survivor count is given as 0 of 4.

For `COC1=C(C)C(=O)C2=C(C1=O)C(CO)N1C(C#N)C3CC4C(C1C2N1CCOC41)N3C` (stereo not drawn), the survivor count reads like this: (T/C endpoint: median survival time, dose: 2.0 mg/kg/injection, schedule: Q01DX005 (ip), vehicle: acid diluted with saline) 6 of 6; (T/C endpoint: median survival time, dose: 2.0 mg/kg/injection, schedule: Q01DX009 (ip), vehicle: saline + alcohol) 4 of 6.
